{
  "source": "PubChem BioAssay AID248",
  "about": "(DTP/NCI, 2004)",
  "test_system": "L1210 leukemia ip in BDF1 mice, survival T/C",
  "experiment": "NCI In Vivo Anticancer Drug Screen. Data for tumor model L1210 Leukemia (intraperitoneal) in B6D2F1 (BDF1) mice",
  "conditions": "T/C endpoint: mean survival time, higher T/C = longer survival",
  "key": {"[1]": {"conditions": "dose: 160.0 mg/kg/injection, schedule: Q01DX009 (oral), vehicle: other"}, "[2]": {"conditions": "dose: 256.0 mg/kg/injection, schedule: Q01DX009 (ip), vehicle: Klucel (hydroxypropylcellulose) (HPC)"}},
  "note": "The list does not hold the whole screen: it is rich in T/C values a quarter to a half above the control, in often repeated tests (any T/C) and in doses without a T/C. Other doses and runs of a compound stand elsewhere. T/C gives the treated animals as a percentage of the vehicle group. Some entries give survivors of the animals treated and no T/C: the source holds a T/C of zero for them, seemingly a mark for toxic or unscored doses. Some survivor counts are full or nearly so, which does not show that the dose was tolerated: the source hardly ever lists a survival T/C far under the control, and the zero likely stands for such cases as well. Counts of survivors are from the toxicity check (mostly the fifth day) where no day follows; animals may have died later. Schedules are NCI's codes, read here as Q, the interval in days (D) or hours (H), X, the number of doses. Some entries were tested several times; the values are given in rising order. Where survival is the endpoint, the PubChem record calls one and a half times the control and up active, and a quarter to a half above the control has no call in these data; cut-offs in other NCI protocols can differ. Some T/C values are followed by the survivors on the day toxicity was checked, most often the fifth; without a count, all were alive then.",
  "data": [
    {"compound": "O=C1NC(c2cccc3ccccc23)Nc2ccccc21", "note": "(stereo not given)", "values": [
      {"measurement": "T/C", "setting": "dose: 150.0 mg/kg/injection, schedule: Q01DX009 (oral), vehicle: Klucel (hydroxypropylcellulose) (HPC)", "result": "135 % of control"},
      {"measurement": "T/C", "setting": "dose: 150.0 mg/kg/injection, schedule: Q01DX009 (oral), vehicle: methylcellulose (MC)", "result": "108, 111, 121, 125, 143, 161, 164 % of control"},
      {"measurement": "T/C", "setting": "dose: 150.0 mg/kg/injection, schedule: Q01DX009 (oral), vehicle: other", "result": "145 % of control [5 of 6 alive]"},
      {"measurement": "T/C", "setting": "dose: 150.0 mg/kg/injection, schedule: Q01DX009 (oral), vehicle: saline", "result": "132 % of control"},
      {"measurement": "T/C", "setting": "[1]", "result": "126 % of control [7 of 8 alive]"},
      {"measurement": "survivor count", "setting": "[1]", "result": "3 of 8"},
      {"measurement": "survivor count", "setting": "dose: 200.0 mg/kg/injection, schedule: Q01DX009 (ip), vehicle: Klucel (hydroxypropylcellulose) (HPC)", "result": "4 of 6, 5 of 6, 6 of 6"},
      {"measurement": "survivor count", "setting": "dose: 200.0 mg/kg/injection, schedule: Q01DX009 (ip), vehicle: methylcellulose (MC)", "result": "0 of 6, 2 of 6, 4 of 6, 5 of 6"},
      {"measurement": "T/C", "setting": "dose: 200.0 mg/kg/injection, schedule: Q01DX009 (oral), vehicle: Klucel (hydroxypropylcellulose) (HPC)", "result": "133 % of control"},
      {"measurement": "T/C", "setting": "dose: 200.0 mg/kg/injection, schedule: Q01DX009 (oral), vehicle: methylcellulose (MC)", "result": "112, 115, 121, 140, 146, 148, 159 % of control"},
      {"measurement": "T/C", "setting": "dose: 200.0 mg/kg/injection, schedule: Q01DX009 (oral), vehicle: other", "result": "127 % of control"},
      {"measurement": "T/C", "setting": "dose: 200.0 mg/kg/injection, schedule: Q01DX009 (oral), vehicle: saline", "result": "125 % of control"},
      {"measurement": "T/C", "setting": "dose: 200.0 mg/kg/injection, schedule: Q04DX003 (ip), vehicle: methylcellulose (MC)", "result": "143 % of control [7 of 8 alive]"},
      {"measurement": "T/C", "setting": "dose: 200.0 mg/kg/injection, schedule: Q04DX003 (ip), vehicle: water", "result": "135 % of control [9 of 10 alive]"},
      {"measurement": "T/C", "setting": "dose: 225.0 mg/kg/injection, schedule: Q01DX009 (oral), vehicle: Klucel (hydroxypropylcellulose) (HPC)", "result": "126 % of control"},
      {"measurement": "T/C", "setting": "dose: 250.0 mg/kg/injection, schedule: Q01DX001 (ip), vehicle: water", "result": "126 % of control"},
      {"measurement": "survivor count", "setting": "dose: 250.0 mg/kg/injection, schedule: Q01DX009 (ip), vehicle: Klucel (hydroxypropylcellulose) (HPC)", "result": "0 of 6, 3 of 6, 5 of 6"},
      {"measurement": "survivor count", "setting": "dose: 250.0 mg/kg/injection, schedule: Q01DX009 (ip), vehicle: methylcellulose (MC)", "result": "0 of 6, 1 of 6, 2 of 6, 3 of 6"},
      {"measurement": "T/C", "setting": "dose: 250.0 mg/kg/injection, schedule: Q01DX009 (oral), vehicle: Klucel (hydroxypropylcellulose) (HPC)", "result": "126, 135 [7 of 8 alive], 141 % of control"},
      {"measurement": "T/C", "setting": "dose: 250.0 mg/kg/injection, schedule: Q01DX009 (oral), vehicle: methylcellulose (MC)", "result": "108, 122 [7 of 8 alive], 125, 140, 153, 154, 186 % of control"},
      {"measurement": "survivor count", "setting": "dose: 250.0 mg/kg/injection, schedule: Q01DX009 (oral), vehicle: other", "result": "3 of 8"},
      {"measurement": "T/C", "setting": "dose: 250.0 mg/kg/injection, schedule: Q01DX009 (oral), vehicle: saline", "result": "132 and 135 % of control"},
      {"measurement": "survivor count", "setting": "dose: 250.0 mg/kg/injection, schedule: Q04DX003 (ip), vehicle: other", "result": "7 of 8"},
      {"measurement": "T/C", "setting": "dose: 250.0 mg/kg/injection, schedule: Q04DX003 (ip), vehicle: water", "result": "142 % of control"},
      {"measurement": "T/C", "setting": "[2]", "result": "138 % of control [9 of 10 alive]"},
      {"measurement": "survivor count", "setting": "[2]", "result": "4 of 10"},
      {"measurement": "survivor count", "setting": "dose: 300.0 mg/kg/injection, schedule: Q04DX003 (ip), vehicle: other", "result": "0 of 8"},
      {"measurement": "survivor count", "setting": "dose: 300.0 mg/kg/injection, schedule: Q04DX003 (oral), vehicle: methylcellulose (MC)", "result": "4 of 8"},
      {"measurement": "survivor count", "setting": "dose: 300.0 mg/kg/injection, schedule: Q04DX003 (oral), vehicle: other", "result": "4 of 8"},
      {"measurement": "T/C", "setting": "dose: 400.0 mg/kg/injection, schedule: Q04DX003 (ip), vehicle: water", "result": "149 % of control"},
      {"measurement": "T/C", "setting": "dose: 500.0 mg/kg/injection, schedule: Q01DX001 (ip), vehicle: water", "result": "134 % of control"},
      {"measurement": "survivor count", "setting": "dose: 516.0 mg/kg/injection, schedule: Q04DX003 (ip), vehicle: Klucel (hydroxypropylcellulose) (HPC)", "result": "6 of 10"},
      {"measurement": "T/C", "setting": "dose: 1024.0 mg/kg/injection, schedule: Q01DX001 (ip), vehicle: Klucel (hydroxypropylcellulose) (HPC)", "result": "138 % of control"},
      {"measurement": "survivor count", "setting": "dose: 1024.0 mg/kg/injection, schedule: Q04DX003 (ip), vehicle: Klucel (hydroxypropylcellulose) (HPC)", "result": "1 of 10 and 9 of 10"},
      {"measurement": "T/C", "setting": "dose: 1024.0 mg/kg/injection, schedule: Q08DX002 (ip), vehicle: Klucel (hydroxypropylcellulose) (HPC)", "result": "131 % of control [7 of 10 alive]"}
    ]}
  ]
}
